Consider one substance from publication doi:10.1101/865998 (bioRxiv, 2019).

Amino acid sequences for entries named in this document (tags omitted). Residues count along the entry.
UniProt P49238: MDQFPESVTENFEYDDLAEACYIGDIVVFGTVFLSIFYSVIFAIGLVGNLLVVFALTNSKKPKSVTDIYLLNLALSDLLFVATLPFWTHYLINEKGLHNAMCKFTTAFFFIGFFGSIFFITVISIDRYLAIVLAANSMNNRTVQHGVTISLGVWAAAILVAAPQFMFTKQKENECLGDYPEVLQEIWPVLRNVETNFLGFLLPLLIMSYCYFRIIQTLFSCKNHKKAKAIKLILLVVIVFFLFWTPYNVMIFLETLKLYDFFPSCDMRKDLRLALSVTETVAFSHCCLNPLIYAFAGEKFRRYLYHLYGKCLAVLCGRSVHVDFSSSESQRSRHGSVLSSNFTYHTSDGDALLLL
UniProt P78423, residues 25-341: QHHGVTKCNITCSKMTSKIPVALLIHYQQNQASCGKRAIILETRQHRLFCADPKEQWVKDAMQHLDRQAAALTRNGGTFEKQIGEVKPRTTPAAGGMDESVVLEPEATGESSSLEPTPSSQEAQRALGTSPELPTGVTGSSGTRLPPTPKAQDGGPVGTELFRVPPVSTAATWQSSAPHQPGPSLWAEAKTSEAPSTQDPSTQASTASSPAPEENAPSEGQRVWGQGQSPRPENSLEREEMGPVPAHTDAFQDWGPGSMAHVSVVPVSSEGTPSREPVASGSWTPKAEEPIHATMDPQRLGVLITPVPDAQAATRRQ

No constants are given. Whether binding was seen depends on the method and setting. Some binding calls cover weakened binding; strength is not graded here.

The assay deals with CX3CR1 on CHO cells expressing CX3CR1 (CHO_(CX3CR1)) (UniProt P49238). Kind of assay: LigandTracer.

Consider “fluorescent CX3CL1-AF647 (from UniProt P78423) (ligand)”, for which the binding result is on record as “binds”.
